Data from PubChem BioAssay AID2685 (National Center for Advancing Translational Sciences (NCATS), 2010).
The whole screen tested about 320,000 compounds, of which about 2,100 (0.66%) were called active. The shares of active, inactive and inconclusive entries below differ from those in the screen. The call rests on the fitted dose curve; in most records, active means well fitted inhibition curve with a large enough effect in the signal ratio, with a control signal flat (not every such curve was filed as active); inconclusive means small, poorly fitted or top-dose-only effect, or effect the other way, or a change in a side signal; inactive means flat fitted curve, though single readings scatter; the % refers to the signal ratio. Potencies beside an inconclusive call are fits to weak or partial responses and may not hold up.

Assay: qHTS Assay for Lipid Storage Modulators in Drosophila S3 Cells
Settings: BODIPY lipid droplet fluorescence, 18-24 h, cells fed with added oleic acid; lipid storage change, negative = inhibition: at 46.1 µM (top of the series) unless noted
Procedure, shortened: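 Laser-scanning cytometry quantifies lipid droplet accumulation (500–530 nm total intensity; droplet/cell object ratio) in oleic acid-fed (400 uM added) Drosophila S3 cells treated with a concentration series. 20 uM Triacsin C defined 100% inhibition.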
On the % scale 0 is the no-effect control and ±100 the full control effect; potency means the concentration at half of the fitted maximal effect.

| SMILES | lipid storage change, negative = inhibition | Potency |
| --- | --- | --- |
| O=C(O)/C=C\C(=O)Nc1cccc(NC(=O)c2ccccc2)c1 | inconclusive: 7.22% | – |
| COC(=O)c1cc(S(=O)(=O)NCCCc2ccco2)c[nH]1 | inconclusive: 293% | – |
| C(=C\c1ccccc1)/CSc1nnc(-c2cccnc2)n1Cc1ccco1 | – | inconclusive: 0.103 µM [activator, full curve, poor fit] |
| COC(=O)COc1ccccc1C(=O)Nc1ccc(OC)cc1 | – | inconclusive: 6.51 µM [activator, single point] |
| COc1cccc(CC(=O)NC2CCCN(Cc3ccc(Cl)cc3)C2)c1 (configuration not stated) | inconclusive: -7.04% | – |
| COc1ccc(/C=C/C(=O)N(C)CC(=O)Nc2cccc(F)c2)cc1S(=O)(=O)N1CCCCC1 | inconclusive: -7.71% | – |
| CCOc1cc(NC(=S)Nc2ccccc2)c(OCC)cc1NC(=O)c1ccc(OC)cc1 | inconclusive: -18.3% | – |
| O=C1N/C(=C/c2ccc(N3CCOCC3)o2)C(=O)N1c1cccc(Cl)c1 | inconclusive: -23% | – |
| Cc1onc(-c2ccccc2)c1C(=O)N/N=C(\N)COc1ccc(Cl)cc1 | inconclusive: 52.2% | – |
| CCN(CC)c1ccc(/C=N/Nc2nc(C)cc(C)n2)c(O)c1 | – | inconclusive: 20.6 µM [falling, partial curve, poor fit] |
| COc1ccc(CC(=O)Nc2cc(Cl)ccc2C(=O)O)cc1 | inconclusive: 0.401% | – |
| COc1ccc(NC(=O)CN(C)C(=O)c2cn(-c3ccccc3)nc2-c2ccc(OC)cc2)cc1 | inconclusive: -70.1% | – |
| COc1ccc(N2CCN(C(c3cccs3)C(C)NC(=O)C(=O)N3CCCC3)CC2)cc1 (configuration not stated) | inconclusive: 61.5% | – |
| O=C(COC(=O)/C=C/c1cccc(C(F)(F)F)c1)Nc1cccc2ccccc12 | inconclusive: -2.83% | – |
| O=S(=O)(c1ccc(S(=O)(=O)N2CCCC2)cc1)N1CCCCCC1 | inconclusive: -5.17% | – |
| O=[N+]([O-])c1ccccc1-c1ccc(C(=S)N2CCCCC2)o1 | inconclusive: -4.47% | – |
| CCCn1c(-c2ccc(F)cc2)n[nH]c1=S | inconclusive: 32.5% | – |
| COc1ccc(-n2[nH]c(C)cc2=O)cc1 | inconclusive: 16.1% | – |
| CC1CN(C(=O)c2ccccc2NS(=O)(=O)c2cccc([N+](=O)[O-])c2)CC(C)O1 (configuration not stated) | – | inconclusive: 6.51 µM [falling, partial curve] |
| Cc1ccc(CC2C(=O)N(CC(=O)O)C(=O)C2C)cc1 (configuration not stated) | inconclusive: -21.9% | – |
| CC(=O)Nc1ccc(N(C(=O)CNC(=O)c2ccco2)C(C(=O)NC2CCCC2)c2ccco2)cc1 (configuration not stated) | – | inconclusive: 1.16 µM [falling, single point] |
| NC(=O)c1ccsc1NC(=O)CSc1ccccc1F | – | inconclusive: 4.11 µM [activator, partial curve] |
| COc1ccc(N2CCN(C(CNC(=O)C(C)(C)C)c3ccco3)CC2)cc1 (configuration not stated) | – | inconclusive: 0.651 µM [falling, single point] |
| COc1ccc(C(=O)NNC(=O)C2(C)CC2(Br)Br)cc1 (configuration not stated) | inconclusive: -82.3% | – |
| CC1Cc2ccccc2N1C(=O)c1ccc2nccnc2c1 (configuration not stated) | inconclusive: 93.3% | – |
| Cc1ccc(C)n1-c1sccc1C(=O)O | – | inconclusive: 29.1 µM [falling, single point] |

| SMILES | lipid storage change, negative = inhibition | Potency |
| --- | --- | --- |
| COc1ccc(NS(=O)(=O)c2cccc(NC(=O)CCC(=O)c3cccs3)c2)cc1 | inconclusive: -33.4% | – |
| Cc1ccc(S(=O)(=O)[N-]c2nc3ccccc3nc2-[n+]2cc(C)cc(C)c2)cc1 | inconclusive: 16.7% | – |
| CC1(C)NC(=O)N(CC(O)CN(c2ccccc2)S(=O)(=O)c2ccc([N+](=O)[O-])cc2)C1=O (configuration not stated) | inconclusive: -45.5% | – |
| Nc1ccccc1Nc1cc(-c2ccccc2)nn1-c1ccccc1 | inconclusive: -15.6% | – |
| CC1CCN(C(=O)CNC(=O)Cc2ccccc2)CC1 | – | inconclusive: 29.1 µM [rising, single point] |
| CCC(NC(=O)c1cc(COc2ccc(C)nc2)on1)c1ccc(C)cc1 (configuration not stated) | – | inconclusive: 20.6 µM [falling, single point] |
| CCN1C(=O)C(O)(CC(=O)C(C)(C)C)c2cc(Br)ccc21 (configuration not stated) | inconclusive: -12% | – |
| CN(Cc1ccccc1)c1ccc([N+](=O)[O-])cc1C(=O)O | inconclusive: -19.8% | – |
| Cc1ccnc2nc(C(=O)OCCOc3ccccc3)nn12 | inconclusive: 7.57% | – |
| O=C(CSc1nc(O)cc(=O)n1-c1ccccc1)Nc1nc2ccccc2s1 | inconclusive: 40.4% | – |
| CC(C)CNC(=O)C(=O)NCc1ccccc1 | inconclusive: 4.26% | – |
| Cc1cccc(NC(=O)c2ccc3c(=O)n(CC4CCCO4)c(=S)[nH]c3c2)c1 (configuration not stated) | – | active: 2.91 µM |
| Cc1cccc(N2CCN(c3ccc(C(N)=O)cc3[N+](=O)[O-])CC2)c1C | – | inconclusive: 6.51 µM [falling, single point] |
| Cc1[nH][nH]c(=O)c1C=NCc1cccc(C(F)(F)F)c1 | inconclusive: -30.3% | – |
| CCOC(=O)CSc1nc(-c2ccncc2)ccc1C#N | inconclusive: 4.03% | – |
| CSc1nc(-c2ccccc2)nc(SC)c1C(C)=O | inconclusive: 5.79% | – |
| CC(C)(C)c1ccc(/C=N/NC(=O)c2ccccn2)cc1 | inactive | – |
| OCCN1CCN(C(=S)c2ccc(Cl)c(Cl)c2)CC1 | – | inconclusive: 29.1 µM [falling, single point] |
| CC(C)N(C(=NCc1ccccc1)NC(=O)c1ccccc1)C(C)C | inconclusive: 25.7% | – |
| COc1ccc(OC)c(NC(=O)CS(=O)(=O)Cc2ccccc2)c1 | – | inconclusive: 25.9 µM [activator, single point] |
| O=C(Nc1ccc(S(=O)(=O)Nc2nccs2)cc1)C1CC(=O)N(c2ccc(Cl)cc2)C1 (configuration not stated) | inconclusive: -57.4% | – |
| CCN=C1S/C(=C\c2cn(CC)c3ccccc23)C(=O)N1CC | inconclusive: 2.33% | – |
| CC(C)N1CCN(Cc2cccn2-c2nccs2)CC1CCO (configuration not stated) | – | inconclusive: 11.6 µM [falling, partial curve, poor fit] |
| CCCCC(=O)Nc1ccc(NC(=O)C2CC2)cn1 | inconclusive: 25.8% | – |
| CCCCn1c(SCC(=O)N2CCCCC2)nc2cc(S(N)(=O)=O)ccc21 | – | inconclusive: 29.1 µM [falling, single point] |
| Cc1cc(C)cc(-n2nnc(C(=O)NCc3ccccc3Cl)c2N)c1 | – | inconclusive: 29.1 µM [falling, single point] |

Another view of some results above:
SMILES,"lipid storage change, negative = inhibition",Potency
Cc1ccc(S(=O)(=O)[N-]c2nc3ccccc3nc2-[n+]2cc(C)cc(C)c2)cc1,inconclusive: 16.7%,–
Cc1cccc(N2CCN(c3ccc(C(N)=O)cc3[N+](=O)[O-])CC2)c1C,–,"inconclusive: 6.51 µM [falling, single point]"
CSc1nc(-c2ccccc2)nc(SC)c1C(C)=O,inconclusive: 5.79%,–

Next entries:

| SMILES | lipid storage change, negative = inhibition | Potency |
| --- | --- | --- |
| COC(=O)C1=C(C)N(C)C(C)=C(C(=O)OC)C1c1cccc(Br)c1 | – | inconclusive: 7.31 µM [activator, partial curve] |
| O=C(Nc1nc(-c2ccc(S(=O)(=O)N3CCOCC3)cc2)cs1)c1ccccc1 | – | inconclusive: 32.6 µM [falling, single point] |
| O=C(CSC(=S)N1CCCC1)N1CCN(S(=O)(=O)c2cccc(F)c2)CC1 | – | inconclusive: 18.4 µM [falling, single point] |
| Cc1nc(C(=O)N2CCCC(C(=O)c3ccc(Cl)cc3)C2)cs1 (configuration not stated) | inconclusive: 39.1% | – |
| CCOC(=O)c1cnc2ccc(Br)cc2c1NCC(C)O (configuration not stated) | inconclusive: 12.3% | – |
| CCC(C)NC(=O)CNC(=O)Cn1c(C)cc2ccccc2c1=O (configuration not stated) | – | inconclusive: 2.59 µM [falling, full curve] |
| O=C1C(Cc2ccccc2)C(c2ccccc2)N1c1ccccc1 (configuration not stated) | inconclusive: -57.9% | – |
| CN(C)S(=O)(=O)c1cccc(NC(=O)COc2ccc3ccccc3c2)c1 | – | inconclusive: 11.6 µM [falling, partial curve, poor fit] |
| O=C(CN1CC(c2ccccc2)CC1=O)N/N=C/c1cc(Br)ccc1O (configuration not stated) | inconclusive: -22.4% | – |
| COC(=O)C1CCN(C(=O)COc2ccc(N(C)S(=O)(=O)c3ccc(C)cc3)cc2)CC1 | inconclusive: -58.8% | – |
| CCCCN(CCCC)S(=O)(=O)c1ccc(OC)c2ncccc12 | – | inconclusive: 7.31 µM [activator, partial curve] |
| CC(=O)N(/N=C1\Sc2ccccc2C1=O)c1ccccc1C | – | inconclusive: 20.6 µM [falling, single point] |
| O=C1Nc2ccc([N+](=O)[O-])cc2OC1CCN1CCCC1 (configuration not stated) | inconclusive: -19.7% | – |
| COc1ccc(N2CCN(C(=O)CN(c3cccc(Br)c3)S(C)(=O)=O)CC2)cc1 | inconclusive: 95.4% | – |
| O=C(NCC(=O)N1CCC(N2CCCCC2)CC1)C1CCCCC1 | – | inconclusive: 23.1 µM [falling, single point] |
| CSCCC(NC(N)=O)C(=O)Nc1ccc(F)c(Cl)c1 (configuration not stated) | inconclusive: 24.6% | – |
| CN(C)S(=O)(=O)c1ccc(Cl)c(NC(=O)COC(=O)c2ccc(O)cc2)c1 | inconclusive: 12.4% | – |
| Cc1ccc(OC(C)C(=O)Nc2ccc3c(c2)n(C)c(=O)n3C)c(C)c1 (configuration not stated) | inconclusive: -42.8% | – |
| Fc1ccccc1-n1c(-c2ccc3ccccc3n2)n[nH]c1=S | inconclusive: 3.2% | – |
| CCc1ccc(NC(=O)C(=O)N/N=C(\C)CC(=O)Nc2ccc(OC)cc2)cc1 | inconclusive: 20.8% [at 9.22 µM] | – |
| CCNC(=O)C(C)NC(=O)C1=NN(c2ccccc2)C(=O)CC1 (configuration not stated) | inconclusive: -32.2% | – |
| Cc1cc(S(=O)(=O)N2CCN(CC(=O)N(C)Cc3ccccc3)CC2)ccc1Br | inconclusive: -21.1% | – |
| O=C(O)c1ccc(-n2cccn2)nc1 | inconclusive: -12.2% | – |
| COc1ccccc1C1Nc2cccc3cccc(c23)N1 | – | inconclusive: 29.1 µM [cytotoxic, single point] |
| COc1ccc(N2CCN(C(=O)c3cc4c(=O)n(Cc5ccccc5)ccc4nc3C)CC2)cc1 | inconclusive: 45.2% | – |
